The whole screen tested about 400,000 compounds, of which about 3,700 (0.93%) were called active. The inconclusive results got no clear call from the source; some entries with a clear call stand among them for comparison. Calls come from the whole dose curve; as a rule, active = well fitted inhibition curve with a large enough effect; inconclusive = small, poorly fitted or top-dose-only effect, or another doubt; inactive = no such curve, though single readings can be large or run the other way. A potency beside an inconclusive call is a rough fit, not a confirmed value. The source holds several records for some structures; these can differ, active in one and inactive in another.
Molecular target: Vitamin D3 receptor (Homo sapiens) (UniProt P11473)
Test: Inhibitors of the vitamin D receptor (VDR): qHTS
Conditions: VDR-SRC2-3 peptide fluorescence polarization, 2 h; max response, negative = inhibition: active compounds read low
Outline: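 Fluorescence polarization assay of small-molecule disruption of VDR binding to coregulator peptide SRC2-3. Compounds and controls pin-transferred, then read after 2 h incubation at ambient room temperature.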
% is set by controls: 0 for no effect and ±100 for the full control effect; potency is the fitted concentration of half-maximal effect.

Amino acid sequences for entries named in this document (tags omitted). A change or cut given only in a name is not applied to a line headed by its entry.
UniProt P11473: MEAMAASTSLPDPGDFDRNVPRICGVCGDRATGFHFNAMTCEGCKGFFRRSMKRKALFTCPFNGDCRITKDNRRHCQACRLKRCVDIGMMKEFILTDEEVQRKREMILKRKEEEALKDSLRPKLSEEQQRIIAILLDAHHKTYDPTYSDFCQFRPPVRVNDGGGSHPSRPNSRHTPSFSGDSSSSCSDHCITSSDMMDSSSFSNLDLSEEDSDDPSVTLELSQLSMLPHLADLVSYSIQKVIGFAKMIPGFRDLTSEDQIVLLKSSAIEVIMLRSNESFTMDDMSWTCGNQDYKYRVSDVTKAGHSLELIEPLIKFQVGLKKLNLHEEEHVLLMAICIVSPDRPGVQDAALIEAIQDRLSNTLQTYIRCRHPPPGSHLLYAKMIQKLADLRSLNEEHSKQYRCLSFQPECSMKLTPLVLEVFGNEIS

Potency, active:
O=C(O)c1cc(-c2ccco2)nc2ccc(Br)cc12 20 µM
Clc1ccc(N=c2ssnc2Cl)nc1 5.62 µM
S=P(N1CC1)(N1CC1)N1CC1 89.1 µM

Potency, inconclusive:
CN(Cc1ccccc1)C(=O)c1ccc(NC(=O)Cc2cccc(NC(=O)C3CCN(C(=O)C4CCC4)CC3)c2)cc1 100 µM [inhibitor, single point]
N#C/C(=C\c1c(F)cccc1Cl)C(=O)NC1CC1 89.1 µM [inhibitor, single point]
Cc1ccc(N=Cc2cc3c(cc2[N+](=O)[O-])OCO3)cc1[N+](=O)[O-] 89.1 µM [inhibitor, single point]
Cc1ccc(C(=O)CNc2cccc(Cl)c2)cc1 89.1 µM [inhibitor, partial curve, poor fit]
COc1ccc(NC(=O)C(C)n2nnc3sc(-c4ccccc4)cc3c2=O)cc1Cl (configuration not stated) 39.8 µM [inhibitor, single point]
CC(C)C(=O)Nc1ccc(NC(=O)c2ccco2)cn1 14.1 µM [inhibitor, partial curve, poor fit]
CCCc1ccc(OCC(=O)Nc2sc3c(c2C(=O)OC)CCCCC3)cc1 89.1 µM [inhibitor, single point]

Max response, negative = inhibition, inactive:
Fc1ccc(/C=N/NC(=S)Nc2ccc(Cl)cc2)cc1F -10.1%
Cc1cccc(OCC(=O)Nc2ccncc2)c1 -9.03%
COc1ccc(-c2noc(CSc3nnc(Cc4ccccc4)n3-c3ccc(Cl)cc3)n2)cc1 10.5%
C=CCN1C(c2ccc(Br)cc2)=CS/C1=C(\C#N)c1nnc(N2CCOCC2)n1-c1ccccc1 4.9%
O=C(O)c1ccc(-n2cc(C(=O)c3ccccc3O)cn2)cc1 9.67%
COC(=O)C(Cc1ccc(OC(=O)c2ccc(Cl)cc2)cc1)N1Cc2ccccc2C1=O (configuration not stated) 8.02%
C#CC[N+](CC)(CC)CC#Cc1ccccc1 12.9%
Cc1noc(C)c1C(=O)Nc1sc2c(c1C(N)=O)CCCCC2 -3.41%
NS(=O)(=O)c1ccc(CCNC(=O)c2ccc3nc(Cc4ccccc4)oc3c2)cc1 19%
CCCc1cc(=O)oc2cc(C)c3c(-c4cccc(OC)c4)coc3c12 15%
COc1ccccc1N1CCN(c2ccc(-c3nc(-c4ccccc4C)no3)cc2[N+](=O)[O-])CC1 6.12%
COc1ccc(NC(=O)c2ccc3ccccc3n2)cc1S(=O)(=O)N1CCCCC1 -15%

For convenience, two of the compounds above:
Max response, negative = inhibition, inactive:
Fc1ccc(/C=N/NC(=S)Nc2ccc(Cl)cc2)cc1F -10.1%
Cc1cccc(OCC(=O)Nc2ccncc2)c1 -9.03%
